# Measured values published in PubChem BioAssay AID1645887 (National Center for Advancing Translational Sciences (NCATS), 2021).
# Amino acid sequences for entries named in this document (tags omitted). A change or cut given only in a name is not applied to a line headed by its entry.
# UniProt Q8WZA2: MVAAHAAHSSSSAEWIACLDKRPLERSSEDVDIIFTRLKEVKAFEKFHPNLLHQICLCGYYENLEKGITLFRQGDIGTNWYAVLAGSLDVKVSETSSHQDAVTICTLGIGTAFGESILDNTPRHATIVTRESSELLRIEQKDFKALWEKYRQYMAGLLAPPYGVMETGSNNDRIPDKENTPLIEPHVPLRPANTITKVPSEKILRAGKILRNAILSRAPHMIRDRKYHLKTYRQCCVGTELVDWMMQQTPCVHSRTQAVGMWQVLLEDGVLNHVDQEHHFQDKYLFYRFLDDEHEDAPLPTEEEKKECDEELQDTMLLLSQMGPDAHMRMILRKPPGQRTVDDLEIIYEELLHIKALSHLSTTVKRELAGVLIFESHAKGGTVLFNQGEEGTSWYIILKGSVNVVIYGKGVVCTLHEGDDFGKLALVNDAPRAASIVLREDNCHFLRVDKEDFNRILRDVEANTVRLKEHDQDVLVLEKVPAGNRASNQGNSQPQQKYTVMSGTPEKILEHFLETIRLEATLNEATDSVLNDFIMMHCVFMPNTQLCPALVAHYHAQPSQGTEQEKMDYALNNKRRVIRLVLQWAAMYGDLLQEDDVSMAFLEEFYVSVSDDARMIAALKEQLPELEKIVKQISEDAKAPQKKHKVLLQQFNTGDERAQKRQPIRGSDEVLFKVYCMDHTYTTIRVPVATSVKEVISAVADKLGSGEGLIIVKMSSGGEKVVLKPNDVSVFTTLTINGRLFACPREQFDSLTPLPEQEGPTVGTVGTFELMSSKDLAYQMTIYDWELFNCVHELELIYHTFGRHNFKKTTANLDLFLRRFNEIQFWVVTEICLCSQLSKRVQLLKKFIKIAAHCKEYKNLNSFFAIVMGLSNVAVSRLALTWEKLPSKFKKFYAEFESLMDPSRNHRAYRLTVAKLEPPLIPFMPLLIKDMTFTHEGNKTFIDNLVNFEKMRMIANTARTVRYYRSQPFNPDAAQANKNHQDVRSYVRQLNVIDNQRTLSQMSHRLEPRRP
# Most of the hits are listed elsewhere, so they are rarer here than in the full data. Active and inactive are the calls of the source. The call rests on the fitted dose curve; in most records, active means well fitted activation curve with a large enough effect; inconclusive means small, poorly fitted or top-dose-only effect, or another doubt; inactive means no such curve, though single readings can be large or run the other way.
# Molecular target: Rap guanine nucleotide exchange factor 4 (Homo sapiens) (UniProt Q8WZA2)
# Assay: Validation qHTS for agonist of cAMP-regulated guanine nucleotide exchange factor 4 (EPAC2);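 further: exchange makes BODIPY-GDP fluorescence drop when released from Rap1B; series mostly up to about 150 µM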
# Details: EPAC2 Rap1B BODIPY-GDP exchange, fluorescence; active compounds read high
# Description: Principle Investigator: Xiaodong Cheng Ph.D.
# The University of Texas Medical Branch, […], TX
# In multi-cellular eukaryotic organisms, the effects of cAMP are transduced by two ubiquitously-expressed intracellular cAMP receptors, the classic protein kinase A/cAMP-dependent protein kinase (PKA/cAPK) and the more recently discovered exchange protein directly activated by cAMP/cAMP-regulated guanine nucleotide exchange factor (EPAC/cAMP-GEF). Both PKA and EPAC are ubiquitously expressed in all tissues, and an increase in intracellular cAMP levels will lead to the activation of both PKA and EPAC. […]
# This qHTS will be used to screen the Molecular Libraries Small Molecule Repository (MLSMR) as a concentration-titration series using the NCGC unique quantitative screening (qHTS) platform to find activators for EPAC1. […] Activators are identified by monitoring the change in fluorescence signal as the exchanged free BODIPY-GDP has a reduced fluorescence compared to Rap1-bound BODIPY-GDP. […]
# Briefly, three uL of reagents (100 nM EPAC2, 250 nM RAP1B-BODIPY-GDP, 50 uM GDP) were dispensed into a 1536-well Greiner black solid-bottom medium binding assay plate. […] The assay plates were read at 5 minute intervals for 30 minutes in the ViewLux plate reader using 480nm excitation and 540nm emission filters. […]
# On the % scale 0 is the no-effect control and ±100 the full control effect.
row,SMILES,activation
1,CC(C)(C)c1ccc(O)cc1,inactive: -17.2%
